# Laboratory results: ChEMBL document CHEMBL1687827, “Profiling the Aspergillus fumigatus proteome in response to caspofungin” (2011)
# This continues a long series; more values of the same kind are listed elsewhere.
# What was measured:
# Format in all cases: functional
# Aspergillus fumigatus [1] = experiment: Induction of change in hypothetical protein level in iTRAQ114 labelled secreted fraction of drug-susceptible Aspergillus fumigatus KU80 delta-akuB at 0.12 ug/ml after 24 hrs in YPD medium by MS (MS/MS) analysis relative to control
# Aspergillus fumigatus [2] = experiment: Induction of change in ribosomal protein L37 gene expression in drug-susceptible Aspergillus fumigatus KU80 delta-akuB at 0.12 ug/ml after 24 hrs in YPD medium by microarray analysis relative to control
# Aspergillus fumigatus [3] = experiment: Induction of change in 14-alpha sterol demethylase Cyp51A protein level in iTRAQ-118 labelled cell wall fraction of drug-susceptible Aspergillus fumigatus KU80 delta-akuB at 0.12 ug/ml after 24 hrs in YPD medium by MS (MS/MS) analysis relative to control
# Aspergillus fumigatus [4] = experiment: Induction of change in ribosomal protein L37a gene expression in drug-susceptible Aspergillus fumigatus KU80 delta-akuB at 0.12 ug/ml after 24 hrs in YPD medium by microarray analysis relative to control
# Aspergillus fumigatus [5] = experiment: Induction of change in 60s ribosomal protein l21 gene expression in drug-susceptible Aspergillus fumigatus KU80 delta-akuB at 0.12 ug/ml after 24 hrs in YPD medium by microarray analysis relative to control
# Aspergillus fumigatus [6] = experiment: Induction of change in 37S ribosomal protein S24 protein level in iTRAQ-118 labelled cell wall fraction of drug-susceptible Aspergillus fumigatus KU80 delta-akuB at 0.12 ug/ml after 24 hrs in YPD medium by MS (MS/MS) analysis relative to control
# Aspergillus fumigatus [7] = experiment: Induction of change in eukaryotic translation initiation factor subunit eIF-4F, putative protein level in iTRAQ-116 labelled secreted fraction of drug-resistant Aspergillus fumigatus EMFR-S678P at 0.12 ug/ml after 48 hrs in YPD medium by MS (MS/MS) analysis relative to control
# Aspergillus fumigatus [8] = experiment: Induction of change in heat shock protein Hsp98/Hsp104/ClpA, putative protein level in iTRAQ-118 labelled cell wall fraction of drug-resistant Aspergillus fumigatus EMFR-S678P at 0.12 ug/ml after 48 hrs in YPD medium by MS (MS/MS) analysis relative to control
# Aspergillus fumigatus [9] = experiment: Induction of change in cytochrome c protein level in iTRAQ-118 labelled cell wall fraction of drug-resistant Aspergillus fumigatus EMFR-S678P at 0.12 ug/ml after 24 hrs in YPD medium by MS (MS/MS) analysis relative to control
# Aspergillus fumigatus [10] = experiment: Induction of change in mycelial catalase Cat1 protein level in iTRAQ114 labelled cell wall fraction of drug-susceptible Aspergillus fumigatus KU80 delta-akuB at 0.12 ug/ml after 24 hrs in YPD medium by MS (MS/MS) analysis relative to control
# Aspergillus fumigatus [11] = experiment: Induction of change in Ribosomal L15 protein level in iTRAQ114 labelled secreted fraction of drug-susceptible Aspergillus fumigatus KU80 delta-akuB at 0.12 ug/ml after 24 hrs in YPD medium by MS (MS/MS) analysis relative to control
# Aspergillus fumigatus [12] = experiment: Induction of change in ribosomal protein S10 gene expression in drug-susceptible Aspergillus fumigatus KU80 delta-akuB at 0.12 ug/ml after 24 hrs in YPD medium by microarray analysis relative to control
# Aspergillus fumigatus [13] = experiment: Induction of change in aldehyde dehydrogenase, putative protein level in iTRAQ114 labelled secreted fraction of drug-susceptible Aspergillus fumigatus KU80 delta-akuB at 0.12 ug/ml after 24 hrs in YPD medium by MS (MS/MS) analysis relative to control
# Aspergillus fumigatus [14] = experiment: Induction of change in alkaline serine protease protein level in iTRAQ114 labelled secreted fraction of drug-susceptible Aspergillus fumigatus KU80 delta-akuB at 0.12 ug/ml after 24 hrs in YPD medium by MS (MS/MS) analysis relative to control
# Aspergillus fumigatus [15] = experiment: Induction of change in 60S ribosomal protein L35Ae protein level in iTRAQ114 labelled cell wall fraction of drug-susceptible Aspergillus fumigatus KU80 delta-akuB at 0.12 ug/ml after 24 hrs in YPD medium by MS (MS/MS) analysis relative to control
# Aspergillus fumigatus [16] = experiment: Induction of change in ribosomal protein S23 protein level in iTRAQ114 labelled secreted fraction of drug-susceptible Aspergillus fumigatus KU80 delta-akuB at 0.12 ug/ml after 24 hrs in YPD medium by MS (MS/MS) analysis relative to control
# Aspergillus fumigatus [17] = experiment: Induction of change in secreted dipeptidyl peptidase DppV protein level in iTRAQ-118 labelled cell wall fraction of drug-resistant Aspergillus fumigatus EMFR-S678P at 0.12 ug/ml after 48 hrs in YPD medium by MS (MS/MS) analysis relative to control
# Aspergillus fumigatus [18] = experiment: Induction of change in GPI-anchored cell wall organization protein Ecm33 protein level in iTRAQ-118 labelled cell wall fraction of drug-resistant Aspergillus fumigatus EMFR-S678P at 0.12 ug/ml after 24 hrs in YPD medium by MS (MS/MS) analysis relative to control
# Aspergillus fumigatus [19] = experiment: Induction of change in 60s ribosomal protein yl6 gene expression in drug-susceptible Aspergillus fumigatus KU80 delta-akuB at 0.12 ug/ml after 24 hrs in YPD medium by microarray analysis relative to control
# Aspergillus fumigatus [20] = experiment: Induction of change in endo-chitosanase pseudogene protein level in iTRAQ-116 labelled secreted fraction of drug-susceptible Aspergillus fumigatus KU80 delta-akuB at 0.12 ug/ml after 48 hrs in YPD medium by MS (MS/MS) analysis relative to control
# Aspergillus fumigatus [21] = experiment: Induction of change in cytosolic small ribosomal subunit protein S12 protein level in iTRAQ114 labelled cell wall fraction of drug-susceptible Aspergillus fumigatus KU80 delta-akuB at 0.12 ug/ml after 24 hrs in YPD medium by MS (MS/MS) analysis relative to control
# Aspergillus fumigatus [22] = experiment: Induction of change in Translation elongation factor eEF-3, putative protein level in iTRAQ-116 labelled cell wall fraction of drug-susceptible Aspergillus fumigatus KU80 delta-akuB at 0.12 ug/ml after 48 hrs in YPD medium by MS (MS/MS) analysis relative to control
# Aspergillus fumigatus [23] = experiment: Induction of change in 60S ribosomal protein L7 protein level in iTRAQ114 labelled cell wall fraction of drug-resistant Aspergillus fumigatus EMFR-S678P at 0.12 ug/ml after 24 hrs in YPD medium by MS (MS/MS) analysis relative to control
# Aspergillus fumigatus [24] = experiment: Induction of change in cytosolic ribosomal protein (Rps29a), putative gene expression in drug-susceptible Aspergillus fumigatus KU80 delta-akuB at 0.12 ug/ml after 24 hrs in YPD medium by microarray analysis relative to control
# Aspergillus fumigatus [25] = experiment: Induction of change in stearic acid desaturase (SdeA), putative gene expression in drug-susceptible Aspergillus fumigatus KU80 delta-akuB at 0.12 ug/ml after 48 hrs in YPD medium by microarray analysis relative to control
smiles,measurement,setting,value
CC[C@H](C)C[C@H](C)CCCCCCCCC(=O)N[C@H]1C[C@@H](O)[C@@H](NCCN)NC(=O)[C@@H]2[C@@H](O)CCN2C(=O)[C@H]([C@H](O)CCN)NC(=O)[C@H]([C@H](O)[C@@H](O)c2ccc(O)cc2)NC(=O)[C@@H]2C[C@@H](O)CN2C(=O)[C@H]([C@@H](C)O)NC1=O [CASPOFUNGIN],fold change (FC),Aspergillus fumigatus [1],-2.3
same,fold change (FC),Aspergillus fumigatus [2],4.9
same,fold change (FC),Aspergillus fumigatus [3],-2.6
same,fold change (FC),Aspergillus fumigatus [4],6.2
same,fold change (FC),Aspergillus fumigatus [5],4.8
same,fold change (FC),Aspergillus fumigatus [6],2.1
same,fold change (FC),Aspergillus fumigatus [7],-1.15
same,fold change (FC),Aspergillus fumigatus [8],-1.15
same,fold change (FC),Aspergillus fumigatus [9],1.07
same,fold change (FC),Aspergillus fumigatus [10],-1.5
same,fold change (FC),Aspergillus fumigatus [11],1.1
same,fold change (FC),Aspergillus fumigatus [12],7.8
same,fold change (FC),Aspergillus fumigatus [13],2.1
same,fold change (FC),Aspergillus fumigatus [14],1.2
same,fold change (FC),Aspergillus fumigatus [15],2.3
same,fold change (FC),Aspergillus fumigatus [16],-1.2
same,fold change (FC),Aspergillus fumigatus [17],-1.32
same,fold change (FC),Aspergillus fumigatus [18],1.15
same,fold change (FC),Aspergillus fumigatus [19],3.8
same,fold change (FC),Aspergillus fumigatus [20],-7
same,fold change (FC),Aspergillus fumigatus [21],1.5
same,fold change (FC),Aspergillus fumigatus [22],2.3
same,fold change (FC),Aspergillus fumigatus [23],-1.07
same,fold change (FC),Aspergillus fumigatus [24],5.2
same,fold change (FC),Aspergillus fumigatus [25],-2.7
